Library screen at single concentrations

From ChEMBL document CHEMBL3988442, “University of Dundee, Small-Polar-MMV Screening Library” (2021).

A: 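Growth of Mycobacterium tuberculosis over 3 days (7H9 medium with glucose and tyloxapol); the read-out is not stated. Compounds at 50 µM. The record gives no direction; compounds that gave an IC50 in retests scored well above the rest, so higher reads as more growth inhibition. Size under these conditions: about 69,000 compounds, about 760 of them at 50% or above in at least one test.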
B: 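Growth of Mycobacterium tuberculosis over 4 days (cholesterol / DPPC medium with tyloxapol); the read-out is not stated. Concentration: 50 µM. Higher reads as more growth inhibition (inferred: compounds with an IC50 in retests scored well above the rest). Size under these conditions: about 69,000 compounds, about 370 of them at 50% or above in at least one test.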

The filed quantity is “Percent Effect” (%). The controls that fix the scale are not given in the record; negative values are as filed. Compounds were drawn at random from those tested, without regard to their results. Two or more numbers in one place are separate tests of the same structure; such repeats can differ widely.

Cc1cnccc1N1CCN(C(=O)C2CC3(CCNCC3)CN2)CC1 (stereo not shown) gave A: 22.87%; B: 25.24%. For CCc1ccc(CC(=O)N2CCN(c3nccn3C)CC2)cc1 the result was A: -2.733%; B: -0.8177%. With O=C(O)C(F)(F)F.[H][C@]12CCN(C(=O)c3cccc(OC)c3)CC[C@@]1([H])S(=O)(=O)CCN2C the screen gave A: -0.3297% and -0.1315%; B: -3.22% and -2.378%. CC(NC(=O)c1ccnc(C2CC2)n1)C1(N2CCOCC2)CCCC1 (stereo not shown) read A: 6.143%; B: 6.844%.

CC(=O)N1CCCC(c2nccnc2Nc2nc(C)cc(C)n2)C1 (stereo not shown) gave A: -22.86%; B: -9.601% and -0.7367%. With Cc1nn(C)c(Cl)c1C1CCCN1C(=O)c1ccc2c(c1)OCO2 (stereo not shown) the screen gave A: 37.25%; B: 8.414%. CC(=O)N1CCN(CCNC(=O)NC(C)Cn2ccnc2)CC1 (stereo not shown) gave A: 6.06%; B: -11%. For Cc1nc(CN2CCOC(c3nc(C(C)C)n[nH]3)C2)oc1C (stereo not shown) the result was A: 1.188%; B: 4.003%.

With CC(NCC1CCN(CCO)CC1)c1ccc(C(F)(F)F)cc1 (stereo not shown) the screen gave A: 17.07%; B: -9.443%. For CNc1nc(C)c(C(=O)N2CCCCC2CN2CCCCCC2)s1 (stereo not shown) the result was A: 34.24%; B: -3.737%. With CSc1ccc(CN(CCO)C(=O)CCOc2ccccc2)cc1 the screen gave A: 5.824%; B: 17.96%. For [H][C@]12CN(C(=O)c3cccn3C)CC[C@@]1(O)CCN(S(C)(=O)=O)C2 the result was A: -6.869%; B: -7.768%.

CSCCC(=O)N1CCCC1c1ccsc1 (stereo not shown) read A: -46.81% and -24.88%; B: -45.27%. For COc1cccc2ccn(CC(=O)NCCC(C)C)c12 the result was A: -24.45%; B: -24.22%. With Cn1nc2c(cc1=O)CN(c1ncnc3sccc13)CC2 the screen gave A: -21.72%; B: -5.763%. Result for Cc1nn(C)c(N(C)C)c1CNCCC(=O)NC1CCCC1 was A: -14.15%; B: -0.4736%.

Result for CCc1ccc(C(=O)NC2CCCN(c3ccn(C)n3)C2=O)o1 (stereo not shown) was A: 2.185% and -0.5789%; B: 4.556%. With N#Cc1cccnc1NCc1cccnc1N1CCC(C(N)=O)CC1 the screen gave A: 16.06%; B: -1.486%. CC(NC(=O)c1cccc[n+]1[O-])c1ccc2c(c1)CCC(=O)N2 (stereo not shown) read A: -17.77%; B: -16.67%. CCc1ncc2c(n1)CN(Cc1cn3ccsc3n1)CC2 read A: -9.965% and 3.864%; B: -15.69%.

CCN(C)C1COC2(CCN(C(=O)c3ccc(Cl)cc3)CC2)C1.O=C(O)C(F)(F)F (stereo not shown) gave A: 9.571%; B: 20.83%. With COc1ccc(OCc2nc(C(=O)NCCN3CCOCC3)co2)cc1 the screen gave A: 5.17%; B: -1.548%. Result for COc1ccccc1COCC(O)CN1CC(n2cccn2)C1 (stereo not shown) was A: -11.67%; B: -17.79%. With CN1CCN(c2ccc(NC(=O)c3ccoc3)c(C(F)(F)F)c2)CC1 the screen gave A: 17.61%; B: 5.028%.

With COCCC(=O)N1CCC2(COCc3c(C)nc(NCC4CC4)nc32)C1 (stereo not shown) the screen gave A: -7.84%; B: -9.843%. CCCC(=O)Nc1cc2c(cc1OC)NC(=O)CC2c1ccc(CC)o1 (stereo not shown) read A: -32.24%; B: -5.65% and -64.82%. Cc1cccc(-n2ncc3c2CCCC3NCc2cccc(O)c2)c1C (stereo not shown) gave A: 18%; B: 0.4563%. For COCC(=O)N(Cc1cccnc1)CC1CCN(C2CCCC2)CC1 the result was A: 18.42%; B: 13.25%.

For CCn1c(C2CCCNC2)nn(CCn2cncn2)c1=O (stereo not shown) the result was A: 15.66%; B: 12.03%.

The last 3 entries again:

{"structure": "Cc1cccc(-n2ncc3c2CCCC3NCc2cccc(O)c2)c1C", "stereo": "stereo not shown", "A": 18, "B": 0.4563}
{"structure": "COCC(=O)N(Cc1cccnc1)CC1CCN(C2CCCC2)CC1", "A": 18.42, "B": 13.25}
{"structure": "CCn1c(C2CCCNC2)nn(CCn2cncn2)c1=O", "stereo": "stereo not shown", "A": 15.66, "B": 12.03}